The nature of the experiment: qHTS Assay to Find Inhibitors of Chronic Active B-Cell Receptor Signaling. The settings on record: ABC-DLBCL IkBa-CBG/CBR reporter, luminescence ratio (green luciferase fused to IkBa over red control in TMD8 lymphoma cells), 4 h. The procedure, abridged: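 Compounds up to 46 uM were incubated four hours with TMD8 cells whose green CBG68 luciferase is fused to IkappaBalpha; red CBR luminescence normalised the signal, and concentration-effect curves were fitted to fusion, red and ratio data.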
On the technique in general: Quantitative high-throughput screening tests each substance at several concentrations.

The mark [1] stands for this setting: measured here: CBR red luminescence, cell number.
[2] abbreviates: measured here: IkBa-CBG green luminescence.

The other results are listed elsewhere or left out. Shown are side measurements of this screen, not its main read-out; they come without a call. Most of these compounds were active or inconclusive in the main read-out, so they are no random draw. Words in brackets tell the shape of the fitted curve; partial curves, single points and poor fits give uncertain potencies.

For orientation: AC50 means the concentration at which the activity in the assay is half-maximal. On to `Cn1nnc(NC(=O)c2ccccc2F)n1`, for which the AC50 under setting [1] is 35.5 µM [falling, single point].
In the case of `CN(C)/C=C/c1onc(-c2ccccc2Cl)c1C#N`, under setting [1], the AC50 is 8.91 µM [rising, partial curve, poor fit].
On the same count and under the same terms, next, `Cc1ccc(NC(=O)C(NS(=O)(=O)c2cccc3nsnc23)C(C)C)nc1` (stereo not drawn): 29.1 µM [falling, single point].
The same measure, in the same setting: next, `COc1cccc(NC(=S)N/N=C2/CCCCc3ccccc32)c1`: 6.51 µM [rising, partial curve].
For the compound `CCCCn1c(CN(C)Cc2ccccc2)nc2c1c(=O)n(C)c(=O)n2C`, the AC50 under setting [1] is 29.1 µM [falling, single point].
With `COc1cccc(NC(=O)CCNC(=O)Cn2ccc3ccccc3c2=O)c1`, under setting [1], the AC50 is 6.51 µM [falling, single point].
For `c1ccc(COc2ccc(OCCN3CCCCC3)cc2)cc1`, the AC50 under setting [1] was 5.17 µM [rising, full curve, poor fit].
On the same count and under the same terms, next, `CCCCN(C)C(=O)c1cc2c(s1)-c1ccccc1S(=O)(=O)C2`: 10 µM [rising, partial curve]; `O=C(Nc1nc2c(s1)CCCC2)c1ccc(Br)s1`: 8.91 µM [falling, partial curve].
Consider `O=C1CC(c2ccc(Cl)cc2)N=C(NC(=O)c2ccccc2)N1` (stereo not drawn), for which the AC50 under setting [1] was 2.51 µM [rising, full curve].
Regarding `CC1CCC(C(C)C)C(OC(=O)Cn2c(-c3ccc(F)cc3)[n+](C)c3ccccc32)C1` (stereo not drawn), under setting [1], the AC50 was 18.4 µM [falling, single point].
On the same count and under the same terms, in the case of `Cc1cccc(-c2nc(CS(=O)CC(=O)N3CCN(C)CC3)c(C)o2)c1` (stereo not drawn) it was 32.6 µM [falling, single point]; in that of `CC(C)Oc1ccc(C(=O)Nc2ccc(Cl)c(S(=O)(=O)Nc3ccc(Cl)cc3)c2)cc1`, 29.1 µM [falling, single point].
`COc1ccc(CNC(=O)C/C(C)=N/NC(=O)C23CC4CC(CC(C4)C2)C3)cc1`: under setting [1], the AC50 is 4.47 µM [rising, single point].
Same read-out and setting: next, `COc1ccc(CCNC(=O)COC(=O)c2cc3ccccc3oc2=O)cc1OC`: 1.3 µM [rising, partial curve, poor fit].
`O=c1oc2ccccc2c(Nc2ccc(Cl)cc2)c1[N+](=O)[O-]`: the AC50 is 20 µM [falling, single point] under setting [1] and 15.8 µM [rising, partial curve, poor fit] under setting [2].
With `COc1cc([C@@H]2c3cc4c(cc3[C@@H](NC3CCN(Cc5ccccc5)CC3)[C@H]3COC(=O)[C@H]23)OCO4)cc(OC)c1O`, the AC50 under setting [1] is 25.1 µM [rising, single point].
For `Nc1ccccc1SC1CC(=O)N(c2ccccc2Cl)C1=O` (stereo not drawn), under setting [1], the AC50 was 2 µM [rising, partial curve, poor fit].
`Cc1ccc(F)cc1NC(=O)N1CCN(C2c3ccccc3-c3ccccc32)CC1`: the AC50 under setting [1] was 10 µM [falling, partial curve].
The same measure, in the same setting: in the case of `Cc1cccc(CS(=O)(=O)c2ncc(Cl)c(C(=O)NCc3ccccc3)n2)c1` it was 11.2 µM [falling, partial curve, poor fit].
With `COC(=O)CNC(=O)Cc1c(C)n(C(=O)c2ccc(Cl)cc2)c2ccc(OC)cc12`, the AC50 under setting [1] was 35.5 µM [falling, single point].
The same measure, in the same setting: next, `COc1cccc(CN(C)CC(=O)Nc2sc3c(c2C#N)CCC3)c1OC`: 5.62 µM [rising, single point]; `Nc1cc(=O)[nH]c(SCC(=O)Nc2ccc(F)c(Cl)c2)n1`: 5.17 µM [falling, single point]; `O=C(Nc1ccccc1)C1=C(N2CCOCC2)/C(=C/c2cccnc2)CC1`: 32.6 µM [falling, single point].
As for `CC1=NC(=O)C(N=Nc2ccccc2C(=O)O)N1c1ccccc1` (stereo not drawn), the concentration at half-maximal activity (AC50) under setting [1] is 14.1 µM [falling, partial curve].
The same measure, in the same setting: in the case of `O=C(Oc1ccccc1)c1ccccc1OS(=O)(=O)c1ccccc1` it was 29.1 µM [rising, single point].
The same measure, in the same setting: next, `O=c1[nH]c(CN2CCCCC2)nc2ccccc12`: 10 µM [falling, partial curve, poor fit].
Still for that read-out and setting: in the case of `CCn1cc(CN2CCCC(C(=O)Nc3ccc(-c4cscn4)cc3)C2)cn1` (stereo not drawn) it was 14.1 µM [falling, single point].
On to `COC(=O)c1c(C)nc(C)c(C(=O)OC)c1-c1ccc(OC)cc1`, for which the AC50 under setting [1] is 14.1 µM [falling, partial curve, poor fit].
With `CC(=O)Nc1ccc(S(=O)(=O)NNC(=O)c2cc3c4ccccc4n(C)c3s2)cc1`, the AC50 under setting [1] is 15.8 µM [falling, partial curve, poor fit].
As to `CCc1cc2c(CN3CCN(CCO)CC3)cc(=O)oc2cc1O`, the AC50 is, setting by setting: under setting [1], 29.1 µM [falling, single point]; under setting [2], 18.4 µM [rising, partial curve, poor fit].
`CCOC(=O)/C(=C\c1ccc(OC)c(OC)c1)C(=O)c1cccnc1`: under setting [1], the AC50 is 5.01 µM [falling, partial curve, poor fit].
Same read-out and setting: in the case of `CCOC(=O)C1CCN(C(=O)c2cc3c(OC)c(OC)c(OC)cc3[nH]2)CC1` it was 25.1 µM [falling, single point]; in that of `CCN1C(Nc2ccccc2)=NC[C@@H]1Cc1ccccc1`, 2.51 µM [falling, full curve].
Consider `COc1cccc(-c2nc(CS(=O)CC(=O)NCCc3ccccc3)c(C)o2)c1` (stereo not drawn), for which, under setting [1], the AC50 is 1.26 µM [rising, partial curve, poor fit].
Consider `COC(=O)c1ccccc1NC(=O)CSc1nccn1C`, for which the AC50 under setting [1] was 25.1 µM [falling, single point].
`CCOC(=O)C1=C(O)/C(=C/c2ccc(OCC(=O)O)c(OCC)c2)SC1=Nc1ccccc1`: the AC50 by setting is: under setting [1], 0.891 µM [rising, partial curve]; under setting [2], 3.16 µM [falling, partial curve, poor fit].
For the compound `O=C(C1=NNCC1c1ccc(Cl)cc1)C1CO1` (stereo not drawn), the AC50 under setting [2] was 29.1 µM [rising, partial curve, poor fit].
`CCOCCCNS(=O)(=O)c1ccc2c(c1)CCN2C(=O)CC`: under setting [1], the AC50 is 3.66 µM [falling, single point].
On to `Cc1nnc(SCC(=O)N2c3ccccc3C(C)(c3ccc(Cl)cc3)CC2(C)C)s1` (stereo not drawn), for which the AC50 under setting [1] was 18.4 µM [falling, single point].
